Measurements: patent US12252488B2 (Nimbus Saturn, Inc., priority 2021, dated 2025)

The chains behind the UniProt entries cited, without tags or fusion partners.
UniProt Q92918, whole entry: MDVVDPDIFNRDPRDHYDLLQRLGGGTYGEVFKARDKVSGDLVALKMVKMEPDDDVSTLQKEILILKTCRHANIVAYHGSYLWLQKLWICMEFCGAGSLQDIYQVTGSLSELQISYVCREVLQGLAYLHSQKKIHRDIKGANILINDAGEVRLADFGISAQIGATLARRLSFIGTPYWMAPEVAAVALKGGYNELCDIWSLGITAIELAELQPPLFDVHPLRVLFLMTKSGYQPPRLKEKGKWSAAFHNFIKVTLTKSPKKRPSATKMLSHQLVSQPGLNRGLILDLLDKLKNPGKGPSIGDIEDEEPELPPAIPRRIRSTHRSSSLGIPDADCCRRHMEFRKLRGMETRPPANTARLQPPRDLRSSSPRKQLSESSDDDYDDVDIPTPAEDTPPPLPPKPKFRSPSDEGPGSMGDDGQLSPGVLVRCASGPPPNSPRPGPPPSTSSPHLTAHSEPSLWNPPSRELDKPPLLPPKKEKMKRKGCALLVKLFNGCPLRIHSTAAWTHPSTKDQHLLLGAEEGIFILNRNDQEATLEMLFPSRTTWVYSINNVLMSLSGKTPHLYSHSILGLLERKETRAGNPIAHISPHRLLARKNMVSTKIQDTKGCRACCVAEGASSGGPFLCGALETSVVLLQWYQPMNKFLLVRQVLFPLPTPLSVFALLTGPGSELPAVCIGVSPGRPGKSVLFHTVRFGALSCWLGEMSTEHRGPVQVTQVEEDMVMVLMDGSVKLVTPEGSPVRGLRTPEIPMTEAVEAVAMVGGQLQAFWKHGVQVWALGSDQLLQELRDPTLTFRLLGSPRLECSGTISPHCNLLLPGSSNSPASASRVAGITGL

Biological target: HPK1 (Homo sapiens, UniProt Q92918)
Assay: HPK1 biochemical enzyme assay (microfluidic mobility shift assay)
Settings: read-out: HPK1 1000UMATP caliper IC50, 1000 uM (1 mM) ATP, 1.5 nM HPK1, 30 min preincubation
Protocol: Example 33. HPK1 Biochemical Enzyme Assay
HPK1 biochemical enzyme assay: HPK1 enzyme inhibition was measured using a microfluidic mobility shift assay. Reactions were performed in a 384-well plate, containing 1.5 nM HPK1 (Invitrogen), in assay buffer (Carna Biosciences; pH 7.4). Test compounds were titrated in ten point curves (top final assay concentration 3 μM), and preincubated with enzyme/substrate mix for 30 min prior to initiation of the reaction by addition of ATP (1 mM final concentration) and substrate (1 μM final concentration; Carna Biosciences) diluted in assay buffer supplemented by MgCl2 (final assay concentration of 5 mM). Following 60 min incubation at RT, the reaction was terminated by addition of 60 μl/well termination buffer (Carna Biosciences) and signal determination using a Caliper EZ Reader (Perkin Elmer, UK).
The compound numbers correspond to the compound numbers in Table 1. Compounds having an activity designated as “A” provided an IC50≤100 nM; compounds having an activity designated as “B” provided an IC50>100 nM and ≤1,000 nM; compounds having an activity designated as “C” provided an IC50>1,000 nM.

IC50 | Structure (SMILES)
100 to 1000 nM | COc1cc(-c2cc(Nc3ccc(N4CCNCC4)cn3)c3c(=O)[nH]ccc3n2)c(F)cc1C(=O)N1CCCC1
100 to 1000 nM | O=c1[nH]ccc2nc(-c3ccc(OCc4ccccc4)cc3F)cc(Nc3ccc(N4CCC(O)CC4)cn3)c12
< 100 nM | COc1ccc(Nc2cc(-c3ccc(NC(=O)C4CCCCC4)cc3F)nc3cc[nH]c(=O)c23)nc1

Structure (SMILES) | IC50
O=C(c1ccc(-c2cc(Nc3ccc(N4CCNCC4)cn3)c3c(=O)[nH]ccc3n2)c(F)c1)N1CC2C(C1)C2(F)F (stereo not shown) | > 1000 nM

The match of structure and compound is tentative.
